PubChem BioAssay AID686943, Drosophila RNAi Screening Center, 2013
Purpose: 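Knockdowns that increase or decrease active ERK after insulin receptor stimulation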 (primary screen). Cells: Drosophila S2R+ haemocyte-like cells expressing YFP-tagged ERK (Rolled). Reagents: long dsRNA against Drosophila genes. Challenge: insulin stimulation versus unstimulated cells; dose and duration not given. Measurement: 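Antibody staining for doubly phosphorylated ERK divided by ERK-YFP signal, as plate z-scores, in insulin-treated and untreated cells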. Reading the numbers: replicate 1, z-score of dpERK with insulin and replicate 2, z-score of dpERK with insulin: higher = more active ERK per ERK-YFP after insulin; replicate 1, z-score of dpERK under basal conditions: higher = more basal active ERK per ERK-YFP.
The screen tested about 23,000 reagents; below is an unselected part of those with a known target gene and a result. 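Extra replicates exist only for a retested subset of genes; insulin dose and duration not given; both raised and lowered dpERK matter.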 The numbers tell different reagents against one gene apart. Names joined by + are all predicted targets of the reagent. Further read-outs or replicates are left out here. The record does not give: the amount of reagent, the time to read-out.

Gene	reagent	replicate 1, z-score of dpERK with insulin	replicate 2, z-score of dpERK with insulin	replicate 1, z-score of dpERK under basal conditions
HmgZ (HMG protein Z)	1	0.46	1.89	1.72
HmgZ (HMG protein Z)	2	-0.79	-0.23	-1.63
fs(1)Ya (female sterile (1) Young arrest)	1	-1.06	1.03	-0.14
mts (microtubule star)	1	-2.75	-4.06	0.66
CG3868	1	-0.14	-0.38	0.09
TfIIA-S-2	1	-0.28	-1.01	0.39
fig (fos intronic gene)	1	-0.74	-0.07	-0.73
CG14042 + SP555	1	1.47	0.8	-0.06
CG14042 + SP555	2	0.56	0.34	0.48

Just “replicate 1, z-score of dpERK under basal conditions” (2 entries from above):
CG14042 + SP555 #1: -0.06
CG14042 + SP555 #2: 0.48

Additional entries:
Gene	reagent	replicate 1, z-score of dpERK with insulin	replicate 2, z-score of dpERK with insulin	replicate 1, z-score of dpERK under basal conditions
betaNACtes6 (Nascent-associated complex beta-subunit-like, testis 6)	1	-0.16	0.22	0.19
Not11 (CCR4-NOT transcription complex subunit 11)	1	1.05	0.24	0.22
vg (vestigial)	1	1.48	0.07	-0.7
vg (vestigial)	2	0.26	0.24	-0.95
IFT46 (Intraflagellar transport 46)	1	0.38	-0.28	1.12
CG32651	1	0.69	2.61	0.03
ATPsynCF6 (ATP synthase, coupling factor 6)	1	0	-0.24	-0.96
CG42582 (retired record)	1	-0.88	-0.48	-0.69
ppk18 (pickpocket 18)	1	0.27	-0.07	-0.58
ppk18 (pickpocket 18)	2	-0.15	0.3	-0.97
CG12347	1	-0.61	0.19	0.13
lncRNA:CR40053 (long non-coding RNA:CR40053)	1	-1.17	0.32	0.15
S6KL (S6 Kinase Like)	1	0.02	-0.79	-0.17
S6KL (S6 Kinase Like)	2	0.32	-0.1	0.08
